Patent US6344324B2, “Quantification of cellular injury using expression of a fluorescent protein under the control of the GADD153 promoter” (Research Development Foundation, priority 2000, dated 2002)
At least one structure is not confirmed: it was looked up by name or label, or the drawing left a doubt.

Test system: DNA of T10b45 cells
Test: Platinum-DNA adduct formation (atomic absorption spectrophotometry)
Format: cell-based, human
Conditions: 1 hour exposure at 10 × IC50; mean ± SD, n = 3

## CC(=O)[O][Pt]([NH2])([Cl])([Cl])([NH]C1CCCCC1)[O]C(C)=O [JM216]
  Pg Pt/μg DNA a 10 × IC50: 161.1 ± 14.3 Pg Pt/μg DNA
